# Laboratory results published in PMC9220929.
# Protein sequences, listed by entry. Tags and fused reporters are not part of them. Lines headed by an entry give the natural chain unless they say otherwise; changes in a name come on top. Residues count along the entry.
# UniProt O35867: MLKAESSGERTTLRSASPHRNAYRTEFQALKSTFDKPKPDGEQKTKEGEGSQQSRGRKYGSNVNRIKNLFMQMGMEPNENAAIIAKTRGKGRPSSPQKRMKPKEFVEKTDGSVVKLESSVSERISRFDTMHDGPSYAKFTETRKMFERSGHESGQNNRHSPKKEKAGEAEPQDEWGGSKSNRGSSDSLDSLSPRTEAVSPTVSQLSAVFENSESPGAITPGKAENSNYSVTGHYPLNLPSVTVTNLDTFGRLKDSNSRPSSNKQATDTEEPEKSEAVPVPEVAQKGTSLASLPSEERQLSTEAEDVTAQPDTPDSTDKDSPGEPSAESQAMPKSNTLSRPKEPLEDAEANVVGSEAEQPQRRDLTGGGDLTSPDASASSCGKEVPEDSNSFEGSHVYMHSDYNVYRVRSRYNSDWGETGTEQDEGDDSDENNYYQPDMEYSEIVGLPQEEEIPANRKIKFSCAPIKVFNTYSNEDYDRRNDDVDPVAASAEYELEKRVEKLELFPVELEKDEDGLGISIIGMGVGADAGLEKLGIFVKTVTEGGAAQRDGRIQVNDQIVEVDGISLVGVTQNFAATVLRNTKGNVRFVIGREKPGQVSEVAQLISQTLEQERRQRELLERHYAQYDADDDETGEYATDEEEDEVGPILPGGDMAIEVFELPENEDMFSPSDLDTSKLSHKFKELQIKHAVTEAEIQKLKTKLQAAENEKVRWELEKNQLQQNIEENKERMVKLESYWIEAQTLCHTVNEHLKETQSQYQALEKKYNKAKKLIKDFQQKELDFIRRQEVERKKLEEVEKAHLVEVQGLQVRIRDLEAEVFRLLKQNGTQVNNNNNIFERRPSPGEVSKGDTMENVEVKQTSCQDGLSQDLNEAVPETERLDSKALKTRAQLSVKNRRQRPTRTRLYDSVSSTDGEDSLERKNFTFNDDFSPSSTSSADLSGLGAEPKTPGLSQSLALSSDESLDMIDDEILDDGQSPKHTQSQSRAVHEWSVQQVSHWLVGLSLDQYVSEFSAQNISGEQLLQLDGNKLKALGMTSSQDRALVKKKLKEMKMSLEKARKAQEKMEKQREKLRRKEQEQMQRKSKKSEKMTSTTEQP
# GST-Nrb331-453 (neurabin aa331-453): residues 331-453 of O35867
# Results are given in words; binding and its absence hold for the method and conditions named. For part of these data: Binding seen in cells or lysates may run through a third protein. Some results given as binding are weak or reduced against the parent protein; the word gives no strength. For part of these data: Where a sequence is shown, tags or fusion partners need not be part of it.
# B1: [35S]-labeled A1R202-326 (adenosine A1 receptor aa202-326) (domain or fragment, UniProt P30542 202-326)
# chain: EVFYLIRKQLNKKVSASSGDPQKYYGKELKIAKSLALILFLFALSWLPLHILNCITLFCPSCHKPSILTYIAIFLTHGNSAMNPIVYAFRIQKFRVTFLKIWNDHFRCQPAPPIDEDLPEERPDD
# modifications: [35S]methionine label
# B2: A1R-CT peptide (aa293-326), without TAT fusion (peptide, UniProt P30542 293-326)
# peptide: QKFRVTFLKIWNDHFRCQPAPPIDEDLPEERPDD
# B3: GFP-fused A1R-CT (GFP-A1R293-326) (domain or fragment, UniProt P30542 293-326)
# chain: B2 peptide
# Assays:
# [1] = target: GST-Nrb331-453 (neurabin aa331-453) (UniProt O35867); test: pull-down; GST-Nrb331-453 as bait, [35S]-labeled in vitro translated A1R202-326 as probe; autoradiography; BSA control or competitor peptides at 0.1 ug/uL; only the target purified
# [2] = target: GST-Nrb331-453 (neurabin aa331-453) (UniProt O35867); test: pull-down; competition pull-down: synthetic A1R peptide (0.1 ug/uL final) added to GST-Nrb331-453 with the [35S]A1R202-326 probe; read-out is the amount of probe pulled down; both purified
# [3] = target: neurabin (full length), expressed in cells (UniProt O35867); test: co-IP; intact cells expressing HA-A1R and neurabin with GFP or GFP-CT, treated with vehicle or R-PIA; neurabin detected in the IP complex with HA-A1R by Western blot
binder,measurement,setting,value
B1,binding,[1],binds
B2,binding,[2],binds
B3,binding,[3],binds
